# Measured values from the supplement of paper PMC3334620.
# The full ranking holds about 33,000 sequences; the median of “E-score (-0.5 to 0.5)” is about -0.0059, and the highest 2% start at about 0.26. The list shows a part of the results.
# Target: T1, Cin5 (UniProt P40917)
# T1 sequence: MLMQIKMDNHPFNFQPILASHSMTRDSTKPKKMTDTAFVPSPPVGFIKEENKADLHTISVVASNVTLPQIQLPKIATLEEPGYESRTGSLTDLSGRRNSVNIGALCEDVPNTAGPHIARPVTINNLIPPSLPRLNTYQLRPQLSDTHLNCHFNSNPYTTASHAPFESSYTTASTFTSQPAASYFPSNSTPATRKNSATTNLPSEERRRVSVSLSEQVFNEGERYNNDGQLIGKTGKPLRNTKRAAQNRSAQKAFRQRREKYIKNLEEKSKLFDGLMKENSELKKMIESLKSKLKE
# Experiment: PBM E-score (8-mer binding enrichment) (E-score (-0.5 to 0.5)); higher = stronger / more preferred TF binding
# Conditions: protein concentration: 100 nM; construct: GST-full length
# Description: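 Universal 'all 10-mer' protein binding microarrays (Agilent AMADID 015681) probed with GST-tagged S. cerevisiae TFs (full-length or DBD) made by in vitro transcription/translation (PURExpress), about 100-200 nM. Bound TF was detected with fluorescent anti-GST. Each ungapped 8-mer (which stands for itself and its reverse complement) is scored by the PBM enrichment score (E-score), a modified Wilcoxon-Mann-Whitney statistic from -0.5 to +0.5, computed with the Universal PBM Analysis Suite. Scale: above 0.35 generally sequence-specific binding.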
row,Sequence,PBM E-score
1,GCTTCCAC,-0.202
2,AGTTGGCC,-0.172
3,ATGCCAGA,0.0954
4,CGGGCGCC,-0.187
5,AATTGAGG,0.142
6,AAGATCCT,0.0447
7,GCCCAAGA,-0.103
8,ATATATCA,0.134
9,ACCGCCTC,-0.222
10,ACGGGACA,-0.0493
11,CAGATTTA,0.186
12,AAGGCAAC,0.0531
13,CTATTCAG,0.115
14,AAGGTCGC,0.0237
15,ACAGATCT,0.0391
16,AGAGGGGC,-0.275
17,AATCACCC,0.123
18,GCTGTAAC,0.0763
19,AAAGATAC,0.186
20,AGCGACTC,-0.168
21,GTGGTGTA,-0.00778
22,GCTAGTCA,-0.0552
23,GGTGAAAA,0.104
24,CGCAGAGA,-0.0316
25,AATAAATA,0.293

row,Sequence,PBM E-score
1,AGCTCCTG,-0.18
2,AATAAAGG,-0.145
3,TGAGTTAA,0.128
4,AGGGCACC,-0.309
5,CCCAAGAG,-0.215
6,AGAAGCCG,0.0323
7,GATCTCCC,-0.208
8,ACAACAAT,0.105
9,ATGCAGTC,-0.21
10,CACCCGAG,-0.0536
11,ACTTGGCT,0.0137
12,AGCTATTC,0.0122
13,CTAACAGA,0.159
14,GGCGCTCA,-0.193
15,TACGGCGA,0.00687
16,GTACAATA,0.0473
17,AGAGCATC,-0.00343
18,GGCGGCGA,-0.0979
19,CCGAGTAC,-0.0705
20,CCTATAAC,-0.172
21,ATATATCG,0.212
22,AAGTCGTA,-0.0647
23,CAGACCTC,-0.203
24,GGGGGCAA,-0.206
25,ACTCCCTG,-0.0621

row,Sequence,PBM E-score
1,AGTCAACA,0.142
2,CAGGGCAA,0.0426
3,CATCAAGA,0.0358
4,AACGTAAC,0.217
5,AAAAGTCT,-0.132
6,TGAATACA,0.125
7,CAAAATAG,0.0505
8,AGCATGGA,-0.135
9,AGCGACAG,0.00675
10,AGTGCACC,0.068
11,ACACACAG,0.0711
12,CCAGGATA,0.0426
13,CATGCGGA,-0.16
14,ACGTTATA,0.158
15,CAGCACGC,-0.0979
16,CGCACCCA,-0.0536
17,ATGATGAG,0.152
18,ACAACGGC,-0.0342
19,GTCTACTA,0.0678
20,ACAACCCA,0.177
21,AGTGCATC,0.034
22,AAGGGAGG,-0.285
23,CGTCGACG,-0.16
24,GTAGTTGA,0.166
25,AAGGCGGA,0.0283

# Fetched one by one from the entries so far:
row,Sequence,PBM E-score
24,GTAGTTGA,0.166
23,CGTCGACG,-0.16
6,TGAATACA,0.125
14,ACGTTATA,0.158
12,CCAGGATA,0.0426
2,CAGGGCAA,0.0426

# More records

row,Sequence,PBM E-score
1,CATCTTAA,0.103
2,GCACCTCA,0.0524
3,AACCTGAG,0.0302
4,CTCAACGC,-0.0933
5,CGAGGTAG,-0.212
6,AAATGACG,0.103
7,CGCTTCAG,-0.043
8,GAAAGAGC,-0.0616
9,CCCAAACG,-0.165
10,ATGCACGG,-0.119
11,CCCACGGC,-0.145
12,GCAGGCCA,-0.116
13,GAATATGA,0.0468
14,AGGGTCTA,-0.189
15,ACCGTTGG,-0.177
16,CATTAGTC,0.0189
17,ACATGAGG,-0.118
18,CTTTTACA,0.167
19,ATCCCACA,-0.0391
20,ACGGGGTC,-0.213
21,ATTCAGCC,-0.0468
22,CGAAAGAC,1e-05
23,GGTGTAAC,0.0363
24,ACGGCGCA,-0.00841
25,GATGTCCA,0.0429

# A portion from the list above, as a working copy:
row,Sequence,PBM E-score
14,AGGGTCTA,-0.189
15,ACCGTTGG,-0.177
16,CATTAGTC,0.0189
17,ACATGAGG,-0.118

# The listing continues.

row,Sequence,PBM E-score
1,TGAGTGAA,0.105
2,GTAGGGCA,0.0381
3,ATCCCTTG,-0.112
4,GAGATACC,0.124
5,CAAGGAAG,-0.0363
6,AGGCAGCG,-0.159
7,ATCAGAAG,0.121
8,CACCTCAC,0.0966
9,CTTGTATC,0.0672
10,GCCGGACC,-0.38
11,TACCGCGA,-0.0146
12,GTGAAAGA,0.0233
13,AGTAGTTG,0.173
14,CTGACCTC,-0.0899
15,AAATCGTG,0.253
16,AAAAAACG,0.125
17,GGAATTTA,0.178
18,AACCTCCC,-0.139
19,CGGTGATA,0.0249
20,CTATCGCC,-0.181
21,AAGCAACT,0.0799
22,CGCTAATC,0.0702
23,CCGTTAGC,-0.101
24,CAGATTCC,-0.0124
25,ACCAATCT,0.131

row,Sequence,PBM E-score
1,CTGATGAC,0.129
2,GCGGATGA,0.167
3,ATACAATA,0.278
4,ACCCTCGC,-0.131
5,CATGAGAG,0.128
6,AGGCGTTG,-0.0279
7,ACACCTCC,-0.161
8,GTGGATCA,-0.0561
9,CACAGGGC,-0.243
10,CACGGCAA,0.0669
11,AACATCAG,0.0836
12,TACGGAAA,0.145
13,CGTGCCCA,-0.107
14,AAATGGTC,0.0467
15,TACCGACA,0.141
16,ATCTCAGC,0.0315
17,CGCATTCC,-0.179
18,AAAGCCAT,0.0541
19,GTGAGTGA,-0.106
20,ACCCTAAC,-0.0346
21,GCCAAAGC,-0.162
22,AATGATAG,0.272
23,ATCGTTTG,-0.0599
24,GACTACAC,0.0277
25,ATCGCAGA,-0.0675

row,Sequence,PBM E-score
1,ACTAAGCG,0.149
2,CACGGATC,-0.0237
3,ACCTAAAT,0.0373
4,CTAACTTA,-0.00293
5,GAACCAGC,-0.0522
6,ATAGTGTG,0.146
7,GCACCTGC,-0.137
8,GGTCAGGA,-0.0114
9,GGATAGCA,0.0689
10,CTTCCTAC,-0.331
11,CTGTTAGA,-0.0871
12,GGGTCTAC,-0.154
13,CAGGCAAG,-0.112
14,CGCCGCCC,-0.154
15,CTGCAGCA,0.061
16,CTTCAGTA,0.0297
17,TAAAACCA,-0.0738
18,GCATGCAA,0.142
19,ACGCGCTA,-0.00527
20,ATCTGCGC,-0.105
21,CCAGGTCG,-0.0717
22,AAGGTAGG,0.0125
23,CGATCATA,0.0918
24,GAGGAAAA,-0.00181
25,CAGGTCAA,-0.0444

row,Sequence,PBM E-score
1,GGACGCCC,-0.28
2,TGGTGAAA,-0.0469
3,AACGGTCT,-0.119
4,AAACACTG,0.108
5,ACGAGTGG,-0.21
6,AGTGATTG,0.115
7,CCGGTGGA,-0.101
8,ACGTCGTA,-0.113
9,ATTCTAGA,0.0325
10,GCAAGACA,-0.0367
11,GTTAATAA,0.186
12,CTGTCGAC,-0.14
13,CCACGGCG,-0.0814
14,TGGCCCAA,-0.158
15,CCACTCTC,-0.133
16,AGGCTCGA,-0.0641
17,CCGACCAA,-0.00883
18,GGGCAGCA,-0.227
19,AGCCCATC,-0.13
20,ACGACACT,-0.0341
21,ACAGTCGC,-0.226
22,GAGTGGAA,-0.0541
23,AGGGCCAA,-0.313
24,AGCCAATC,-0.0481
25,GCTATGAC,-0.0133

row,Sequence,PBM E-score
1,ACGTCAGC,0.394
2,CCGTCACG,-0.0991
3,TCCGAGCA,0.00289
4,ACCTAGCA,0.0473
5,CCAAAGGC,-0.269
6,AAGATATG,0.268
7,GAAGGCAA,0.0399
8,CGTAGTAA,0.156
9,AATCCAGG,0.172
10,AATGCGAT,0.0417
11,ACAGACGA,0.0695
12,CACGTGAG,-0.0998
13,GCCCGATA,-0.195
14,CCGCAAAG,0.0544
15,ACGGTTTC,-0.124
16,GCACATAC,-0.202
17,ACGTCTCA,0.124
18,CTGGTCGA,-0.378
19,AATTCGAA,0.0371

# An excerpt of these results, with tabs:
row	Sequence	PBM E-score
2	CCGTCACG	-0.0991
3	TCCGAGCA	0.00289
